Experimental data published in the supplement of paper PMC9135407.
Where “and” joins values, the source holds several entries; their conditions need not be identical. Identical values can stand only once. Counter-ions that a name gives are not always drawn. ± gives the standard deviation of the averaged measurements. The list shows a part of the results. Part of the spread comes from offsets between plates or batches.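 Culture-activated primary human stellate myofibroblasts, where regained lipid droplets signal inactivation. Value: share of Hoechst-counted cells above a per-plate Bodipy cutoff, in duplicate wells, with DMSO negative and nortriptyline positive controls on each plate. Hits: a control-normalized score above the plate's top-tenth-percentile nortriptyline wells, or one of a plate's three best wells. Final well concentrations are not given.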

System: primary human hepatic stellate cells (donor 1)
Test: percent Bodipy-positive cells; higher = more lipid droplet accumulation
Details: 48 h
[1] = library stock concentration: 1 mM
[2] = library stock concentration: 10 mM
[3] = library stock concentration: 3.33 mM

In the case of `c1cc2ccc(N3CCNCC3)cc2cn1` [7-piperazin-1-yl-Isoquinoline (hydrochloride)], the “percent Bodipy-positive cells” value [1] is reported as 17.4 ± 13%.

For `CC[C@@H](C)C(=O)O[C@H]1[C@H](O)[C@H]2[C@@H](CN3C[C@@H](C)CC[C@H]3[C@@]2(C)O)[C@@H]2C[C@]34O[C@]5(O)[C@@H](OC(=O)[C@](C)(O)[C@@H](C)O)CC[C@@]3(C)[C@@H]5[C@@H](OC(C)=O)[C@@H](OC(C)=O)[C@H]4[C@@]21O` (stereo in doubt) [Protoveratrine b], the “percent Bodipy-positive cells” value [2] was 45.4 ± 30%.

In the case of `c1cc(Cc2cnc[nH]2)ccn1` [Immethridine dihydrobromide], the “percent Bodipy-positive cells” value [2] is reported as 7.53 ± 0.19%.

`Oc1cccc2cccnc12` [Oxyquinoline hemisulfate] was tested, and the “percent Bodipy-positive cells” value [2] was 15.9 ± 3.4%.

With `CC(C)(O)C(Cl)(Cl)Cl` the “percent Bodipy-positive cells” value [2] was 35.8 ± 8.1%.

`COc1ccc(CCN)cc1OC` [Homoveratrylamine] was tested, and the “percent Bodipy-positive cells” value [2] was 5.68 ± 0.47%.

With `CC1=C(O)C(=O)C=C2C1=CC=C1[C@@]2(C)CC[C@@]2(C)[C@@H]3C[C@](C)(C(=O)O)CC[C@]3(C)CC[C@]12C` [Celastrol] the “percent Bodipy-positive cells” value (library stock concentration: 80 uM) was 19.9 ± 4.7%, the “percent Bodipy-positive cells” value (library stock concentration: 400 uM) was 21.7 ± 1.2% and the “percent Bodipy-positive cells” value [2] was 100%.

In the case of `Cc1ncc(CNC(=O)N(CCCl)N=O)c(N)n1` [Nimustine], the “percent Bodipy-positive cells” value [2] is reported as 32.5 ± 17%.

`Cc1ncc(CNC(=O)N(CCCl)N=O)c(N)n1` [Nimustine hydrochloride] was tested, and the “percent Bodipy-positive cells” value [2] was 25.5 ± 3%.

With `CCCC(=O)N[C@H]1CCOC1=O` [N-butyryl-L-Homoserine lactone] the “percent Bodipy-positive cells” value [1] was 14 ± 2.2%.

In the case of `C[C@H]1CCC/C=C/[C@@H]2C[C@H](O)C[C@H]2[C@H](O)/C=C/C(=O)O1` [Brefeldin A], the “percent Bodipy-positive cells” value [3] is reported as 62.5 ± 13%, the “percent Bodipy-positive cells” value [2] is reported as 59.8% and 45.5% and the “percent Bodipy-positive cells” value (library stock concentration: 17.8 mM) is reported as 75.6 ± 1.4%.

In the case of `COc1ccc(/C=C\c2cc(OC)cc(OC)c2)cc1` [cis-trismethoxy Resveratrol], the “percent Bodipy-positive cells” value [1] is reported as 38.7 ± 9.3%.

`CNc1ccc(C(=O)CC(O)CCC(C)C2OC(=O)CC(O)CC(=O)CC(O)CC(O)CC(O)CC(O)CC3(O)CC(O)C(C(=O)OC)C(CC(O[C@@H]4O[C@H](C)[C@@H](O)[C@H](N)[C@@H]4O)/C=C/C=C/C=C/C=C/C=C/C=C/C=C/C2C)O3)cc1.COC(=O)C1C(O)CC2(O)CC(O)CC(O)CC(O)CC(O)CC(=O)CC(O)CC(=O)OC(C(C)CCC(O)CC(=O)c3ccc(N)cc3)C(C)/C=C/C=C/C=C/C=C/C=C/C=C/C=C/C(O[C@@H]3O[C@H](C)[C@@H](O)[C@H](N)[C@@H]3O)CC1O2` (stereo not given in full) [Mepartricin] was tested, and the “percent Bodipy-positive cells” value [2] was 28.7 ± 7.8%.

In the case of `COc1ccc2[nH]cc(CCN)c2c1` [O-Methylserotonin hydrochloride], the “percent Bodipy-positive cells” value [2] is reported as 40.2 ± 12%.

`COc1ccc2[nH]cc(CCN)c2c1` [5-Methoxytryptamine] was tested, and the “percent Bodipy-positive cells” value [2] was 5.8 ± 0.55%.

In the case of `C[N+]1(C)CCc2cc3c(cc2C1C1OC(=O)c2c1ccc1c2OCO1)OCO3` (single isomer, unassigned; (-)) [(-)-Bicuculline methobromide], the “percent Bodipy-positive cells” value [2] is reported as 12.1 ± 6%.

For `CC(=O)N[C@H]1[C@@H](O[C@@H]2O[C@H](CC(O)[C@H]3O[C@@H](n4ccc(=O)[nH]c4=O)[C@H](O)[C@@H]3O)[C@H](O)[C@H](O)[C@H]2NC(=O)/C=C/CC(C)C)O[C@H](CO)[C@@H](N)[C@@H]1O` (stereo not given in full) [Tunicamycin], the “percent Bodipy-positive cells” value (library stock concentration: 7 mM) was 21.9 ± 2.6%.

With `CC[C@H](C)[C@H]1O[C@]2(C=C[C@@H]1C)C[C@@H]1C[C@@H](C/C=C(\C)[C@@H](O[C@H]3C[C@H](OC)[C@@H](O[C@H]4C[C@H](OC)[C@@H](O)[C@H](C)O4)[C@H](C)O3)[C@@H](C)/C=C/C=C3\CO[C@@H]4[C@H](O)C(C)=C[C@@H](C(=O)O1)[C@]34O)O2.CO[C@H]1C[C@H](O[C@H]2[C@H](C)O[C@@H](O[C@@H]3/C(C)=C/C[C@@H]4C[C@@H](C[C@]5(C=C[C@H](C)[C@@H](C(C)C)O5)O4)OC(=O)[C@@H]4C=C(C)[C@@H](O)[C@H]5OC/C(=C\C=C\[C@@H]3C)[C@]54O)C[C@@H]2OC)O[C@@H](C)[C@@H]1O` [Avermectin B1] the “percent Bodipy-positive cells” value was 8.74 ± 0.65%.

For `CC[C@H](C)[C@H]1O[C@]2(C=C[C@@H]1C)C[C@@H]1C[C@@H](C/C=C(\C)[C@@H](O[C@H]3C[C@H](OC)[C@@H](O[C@H]4C[C@H](OC)[C@@H](O)[C@H](C)O4)[C@H](C)O3)[C@@H](C)/C=C/C=C3\CO[C@@H]4[C@H](O)C(C)=C[C@@H](C(=O)O1)[C@]34O)O2.CO[C@H]1C[C@H](O[C@H]2[C@H](C)O[C@@H](O[C@@H]3/C(C)=C/C[C@@H]4C[C@@H](C[C@]5(C=C[C@H](C)[C@@H](C(C)C)O5)O4)OC(=O)[C@@H]4C=C(C)[C@@H](O)[C@H]5OC/C(=C\C=C\[C@@H]3C)[C@]54O)C[C@@H]2OC)O[C@@H](C)[C@@H]1O` [Abamectin], the “percent Bodipy-positive cells” value (library stock concentration: 2.3 mM) was 5.62% and 30%.

In the case of `CC[C@H](C)[C@H]1O[C@]2(C=C[C@@H]1C)C[C@@H]1C[C@@H](C/C=C(\C)[C@@H](O[C@H]3C[C@H](OC)[C@@H](O[C@H]4C[C@H](OC)[C@@H](O)[C@H](C)O4)[C@H](C)O3)[C@@H](C)/C=C/C=C3\CO[C@@H]4[C@H](O)C(C)=C[C@@H](C(=O)O1)[C@]34O)O2.CO[C@H]1C[C@H](O[C@H]2[C@H](C)O[C@@H](O[C@@H]3/C(C)=C/C[C@@H]4C[C@@H](C[C@]5(C=C[C@H](C)[C@@H](C(C)C)O5)O4)OC(=O)[C@@H]4C=C(C)[C@@H](O)[C@H]5OC/C(=C\C=C\[C@@H]3C)[C@]54O)C[C@@H]2OC)O[C@@H](C)[C@@H]1O` [Avermectin b1], the “percent Bodipy-positive cells” value [2] is reported as 16.6 ± 2%.

In the case of `CN1C2CCC1CC(OC(=O)c1cc(Cl)cc(Cl)c1)C2` (stereo not given), the “percent Bodipy-positive cells” value [2] is reported as 65 ± 4%.

`CO[C@H]1CC=C2CCN3CCC4=C(CC(=O)OC4)[C@]23C1` [Dihydro-beta-erythroidine hydrobromide] was tested, and the “percent Bodipy-positive cells” value [2] was 35.5 ± 8.3%.

For `C[C@]12CCC(=O)C=C1CC[C@@H]1[C@@H]2C(=O)C[C@]2(C)C(=O)CC[C@@H]12` [Adrenosterone], the “percent Bodipy-positive cells” value was 13 ± 7.6%.

`C[N+]1(C)CCOC(O)(c2ccc(-c3ccc(C4(O)C[N+](C)(C)CCO4)cc3)cc2)C1` (stereo not given) [Hemicholinium-3] was tested, and the “percent Bodipy-positive cells” value [2] was 51.9 ± 27%.

With `C[N+]1(C)CCOC(O)(c2ccc(-c3ccc(C4(O)C[N+](C)(C)CCO4)cc3)cc2)C1` (stereo not given) [Hemicholinium bromide] the “percent Bodipy-positive cells” value was 33.2 ± 3.3%.

With `COc1ccc(-n2nc(C(F)(F)F)cc2-c2ccc(Cl)cc2)cc1` the “percent Bodipy-positive cells” value [2] was 5.95 ± 1.3%.

For `Nc1ccncc1` [Fampridine], the “percent Bodipy-positive cells” value (library stock concentration: 21.3 mM) was 23.2 ± 1%.

With `Nc1ccncc1` [4-Aminopyridine] the “percent Bodipy-positive cells” value (library stock concentration: 53.1 mM) was 20.8 ± 16%.

In the case of `CN(C)Cc1c[nH]c2ccccc12` [Gramine], the “percent Bodipy-positive cells” value is reported as 39.3 ± 12%, the “percent Bodipy-positive cells” value [3] is reported as 9.19 ± 1.7% and the “percent Bodipy-positive cells” value [2] is reported as 60.5 ± 9.3%.

`C[C@@H]1O[C@@H](O[C@H]2C[C@@H](O)[C@]3(CO)C4C(CC[C@]3(O)C2)[C@@]2(O)CC[C@H](C3=CC(=O)OC3)[C@@]2(C)C[C@H]4O)[C@H](O)[C@H](O)[C@H]1O` (stereo not given in full) [Ouabain] was tested, and the “percent Bodipy-positive cells” value [2] was 94.44 ± 0.49%.

`CCS(=O)(=O)Nc1cccc(C(=C2CCCCC2)c2cnc[nH]2)c1` was tested, and the “percent Bodipy-positive cells” value [2] was 45.1 ± 3.7%.

In the case of `C[C@]12CC[C@H]3[C@@H](CC[C@]4(O)C[C@@H](O)CC[C@]34C=O)[C@@]1(O)CC[C@@H]2C1=CC(=O)OC1` [Strophanthidin], the “percent Bodipy-positive cells” value is reported as 68 ± 6%.

With `O=Cc1cn(Cc2ccc(Cl)cc2)c2ccccc12` [Oncrasin 1] the “percent Bodipy-positive cells” value [2] was 14.3 ± 5.8%.

For `NCC(CS(=O)(=O)O)c1ccc(Cl)cc1` (stereo not given) [Saclofen], the “percent Bodipy-positive cells” value [2] was 7.81 ± 1.5%.

In the case of `CC[C@@]1(O)C[C@H](O)c2c(cc3c(c2O)C(=O)c2c(O)ccc(O)c2C3=O)[C@H]1C(=O)OC` [Rutilantinone], the “percent Bodipy-positive cells” value [2] is reported as 34.9 ± 4.1%.

For `O=C(O)CCCc1ccc(N(CCCl)CCCl)cc1` [Chlorambucil], the “percent Bodipy-positive cells” value was 8.86 ± 0.41%, the “percent Bodipy-positive cells” value (library stock concentration: 6.6 mM) was 13.4% and 2.09% and the “percent Bodipy-positive cells” value [2] was 10.1 ± 3.5%.

With `O=C(O)CCCc1ccc(N(CCCl)CCCl)cc1` [Chloroambucil] the “percent Bodipy-positive cells” value [3] was 8.52 ± 3.2% and the “percent Bodipy-positive cells” value [2] was 29 ± 5.2%.

For `O=C(O)CCCc1ccc(N(CCCl)CCCl)cc1`, the “percent Bodipy-positive cells” value [2] was 38.4 ± 7%.

In the case of `NCC(O)c1cc(O)c(O)cc1F` (stereo not given) [6-Fluoronorepinephrine hydrochloride], the “percent Bodipy-positive cells” value [2] is reported as 46.6 ± 15%.

With `CC[C@@H](C(N)=O)N1CCCC1=O` [Levetiracetam] the “percent Bodipy-positive cells” value [3] was 18.8 ± 1.1%, the “percent Bodipy-positive cells” value [2] was 9.84% and 26.9% and the “percent Bodipy-positive cells” value (library stock concentration: 11.8 mM) was 9.79 ± 1.8%.

`CCCCC/C=C\C/C=C\C/C=C\C/C=C\CCCC(=O)Nc1ccc2c(C)cc(=O)oc2c1` [AMC Arachidonoyl Amide] was tested, and the “percent Bodipy-positive cells” value [1] was 12.76 ± 0.02%.

For `C[C@@H]1O[C@@H](O[C@H]2C[C@@H](O)[C@]3(CO)[C@@H]4C(CC[C@]3(O)C2)[C@@]2(O)CC[C@H](C3COC(=O)C3)[C@@]2(C)C[C@H]4O)[C@H](O)[C@H](O)[C@H]1O` (stereo not given in full) [Dihydroouabain], the “percent Bodipy-positive cells” value [2] was 96.5 ± 1.3%.

In the case of `O=C(O[C@H]1C[C@H]2CC[C@@H](C1)[N+]21CCCC1)C(O)(c1ccccc1)c1ccccc1` [Trospium chloride], the “percent Bodipy-positive cells” value [3] is reported as 7.87 ± 2.2% and the “percent Bodipy-positive cells” value [2] is reported as 15.3 ± 6.6%.

For `Cc1ncc(CN2CC=C(c3ccccc3)CC2)c(N)n1`, the “percent Bodipy-positive cells” value [2] was 7.78 ± 0.28%.

With `Cc1[nH]c2ccc(O)cc2c1CCN` [2-Methyl-5-hydroxytryptamine maleate] the “percent Bodipy-positive cells” value [2] was 52 ± 8.7%.

`Cc1[nH]c2ccc(O)cc2c1CCN` [2-Methyl-5-hydroxytryptamine hydrochloride] was tested, and the “percent Bodipy-positive cells” value [2] was 6.35 ± 0.085%.

In the case of `CCCCCCCCCCCCCC(=O)O[C@@H]1[C@@H](C)[C@@]2(O)[C@@H](C=C(CO)C[C@]3(O)C(=O)C(C)=C[C@@H]23)[C@@H]2C(C)(C)[C@]12OC(C)=O` [Phorbol 12-myristate 13-acetate], the “percent Bodipy-positive cells” value [2] is reported as 20 ± 2.8%.

In the case of `O=C1/C(=C/c2ccccc2)C[C@@]2(O)[C@H]3Cc4ccc(O)c5c4[C@@]2(CCN3CC2CC2)[C@H]1O5` [BNTX maleate salt hydrate], the “percent Bodipy-positive cells” value [2] is reported as 100%.

With `COc1ccc(C(=O)N2CCCC2=O)cc1` [Aniracetam] the “percent Bodipy-positive cells” value [3] was 24 ± 3.6% and the “percent Bodipy-positive cells” value (library stock concentration: 9.1 mM) was 14.4% and 1.96%.

For `CN(C)C(=O)C(CCN1CCC(O)(c2ccc(Cl)cc2)CC1)(c1ccccc1)c1ccccc1.Cl` [Loperamide hydrochloride], the “percent Bodipy-positive cells” value [2] was 98.03 ± 0.6%.

For `CN1CCC(c2ccc(F)cc2)C(COc2ccc3c(c2)OCO3)C1` (stereo not given), the “percent Bodipy-positive cells” value (library stock concentration: 9.7 mM) was 76.5 ± 3%.

`O[C@H]1[C@H]2[C@H](O)CCCN2C[C@H]1O` [swainsonine] was tested, and the “percent Bodipy-positive cells” value (library stock concentration: 28.9 mM) was 12.7 ± 0.49%.
